Results are given in words; binding and its absence hold for the method and conditions named. In cells and extracts the contact can be indirect. Some entries that bind do so weakly or less than the wild type.
Target: Rluc-Cdc42 (human CDC42, cell division control protein 42 homolog, with N-terminal Rluc tag) (human) (UniProt P60953)
Test: FRET or BRET

Sequences of proteins named here, by UniProt entry; tags and fusion partners are left off. A change or cut given only in a name is not applied to a line headed by its entry. A line that says so, or that is headed by a name, gives the form on record, which may keep a tag or linker.
Rluc-Cdc42 (human CDC42, cell division control protein 42 homolog, with N-terminal Rluc tag) (P60953, form named): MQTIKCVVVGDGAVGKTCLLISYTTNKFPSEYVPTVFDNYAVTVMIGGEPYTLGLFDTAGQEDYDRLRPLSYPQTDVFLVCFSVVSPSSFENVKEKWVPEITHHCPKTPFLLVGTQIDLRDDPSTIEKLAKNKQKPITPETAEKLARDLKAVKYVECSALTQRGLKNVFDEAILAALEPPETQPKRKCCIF
GFP-PAK1 (human p21-activated kinase 1 with N-terminal GFP tag) (Q13153-2, form named): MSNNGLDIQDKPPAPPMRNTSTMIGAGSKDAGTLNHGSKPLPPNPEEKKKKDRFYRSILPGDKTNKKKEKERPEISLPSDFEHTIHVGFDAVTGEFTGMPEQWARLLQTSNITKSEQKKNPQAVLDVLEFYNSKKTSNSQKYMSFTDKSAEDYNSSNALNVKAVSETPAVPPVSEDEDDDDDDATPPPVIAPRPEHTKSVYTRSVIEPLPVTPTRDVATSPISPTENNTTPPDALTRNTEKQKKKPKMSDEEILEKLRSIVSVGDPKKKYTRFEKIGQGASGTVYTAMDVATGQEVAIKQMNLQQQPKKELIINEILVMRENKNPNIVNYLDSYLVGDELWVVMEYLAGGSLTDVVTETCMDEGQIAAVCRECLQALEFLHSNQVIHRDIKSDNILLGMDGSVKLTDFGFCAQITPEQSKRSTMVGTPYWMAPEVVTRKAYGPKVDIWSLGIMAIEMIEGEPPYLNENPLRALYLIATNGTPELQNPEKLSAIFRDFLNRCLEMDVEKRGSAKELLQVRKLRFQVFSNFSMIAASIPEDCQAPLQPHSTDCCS

## GFP-PAK1 (human p21-activated kinase 1 with N-terminal GFP tag) (from UniProt Q13153-2 1-553)
  binding: binds

Reference: paper doi:10.1101/2024.12.18.629081
